1 substance from paper doi:10.1101/2022.10.19.22280748 can be followed below.

Protein sequences, listed by entry. Tags and fused reporters are not part of them. Lines headed by an entry give the natural chain unless they say otherwise; changes in a name come on top.
UniProt P68371: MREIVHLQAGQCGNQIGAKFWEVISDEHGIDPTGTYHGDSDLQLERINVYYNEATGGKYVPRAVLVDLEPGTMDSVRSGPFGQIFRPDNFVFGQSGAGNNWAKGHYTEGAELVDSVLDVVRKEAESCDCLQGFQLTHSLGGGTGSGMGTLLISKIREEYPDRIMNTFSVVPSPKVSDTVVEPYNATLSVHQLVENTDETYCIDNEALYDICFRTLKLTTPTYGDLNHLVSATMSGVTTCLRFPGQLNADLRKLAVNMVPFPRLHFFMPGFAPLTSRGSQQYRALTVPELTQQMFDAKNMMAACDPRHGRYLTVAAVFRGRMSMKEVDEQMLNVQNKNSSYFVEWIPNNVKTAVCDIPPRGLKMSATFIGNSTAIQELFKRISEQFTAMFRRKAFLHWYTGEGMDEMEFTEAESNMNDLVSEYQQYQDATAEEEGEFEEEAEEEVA
UniProt Q8BYA0: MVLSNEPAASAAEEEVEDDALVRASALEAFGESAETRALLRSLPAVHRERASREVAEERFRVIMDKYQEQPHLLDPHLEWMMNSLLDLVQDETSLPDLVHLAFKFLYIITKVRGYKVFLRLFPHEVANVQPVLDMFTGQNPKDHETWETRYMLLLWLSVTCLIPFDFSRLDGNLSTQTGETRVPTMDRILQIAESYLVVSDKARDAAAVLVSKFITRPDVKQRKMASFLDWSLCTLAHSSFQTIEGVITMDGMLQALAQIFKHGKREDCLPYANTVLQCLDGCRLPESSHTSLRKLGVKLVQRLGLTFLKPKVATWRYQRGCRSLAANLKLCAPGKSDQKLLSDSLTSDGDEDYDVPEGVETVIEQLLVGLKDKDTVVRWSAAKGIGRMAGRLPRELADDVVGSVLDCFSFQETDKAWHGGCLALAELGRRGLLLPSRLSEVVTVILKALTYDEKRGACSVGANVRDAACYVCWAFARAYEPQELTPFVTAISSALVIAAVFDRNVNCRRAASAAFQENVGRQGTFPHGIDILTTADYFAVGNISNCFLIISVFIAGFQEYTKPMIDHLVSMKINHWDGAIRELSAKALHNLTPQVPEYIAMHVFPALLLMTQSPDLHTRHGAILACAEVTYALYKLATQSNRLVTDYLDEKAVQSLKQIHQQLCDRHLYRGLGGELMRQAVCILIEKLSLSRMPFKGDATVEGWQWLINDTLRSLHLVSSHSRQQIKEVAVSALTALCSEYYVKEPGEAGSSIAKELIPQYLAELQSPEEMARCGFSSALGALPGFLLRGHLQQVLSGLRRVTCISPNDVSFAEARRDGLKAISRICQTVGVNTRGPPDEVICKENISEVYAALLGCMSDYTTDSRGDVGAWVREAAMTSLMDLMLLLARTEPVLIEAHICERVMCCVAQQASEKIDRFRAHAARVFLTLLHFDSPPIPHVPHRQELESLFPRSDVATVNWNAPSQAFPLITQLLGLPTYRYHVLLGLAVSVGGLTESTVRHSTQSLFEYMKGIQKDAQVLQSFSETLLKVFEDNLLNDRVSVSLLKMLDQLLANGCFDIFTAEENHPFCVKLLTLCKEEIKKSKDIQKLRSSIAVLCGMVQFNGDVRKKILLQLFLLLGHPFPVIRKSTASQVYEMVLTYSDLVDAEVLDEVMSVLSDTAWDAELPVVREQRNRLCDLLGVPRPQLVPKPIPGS

No constants are given. Whether binding was seen depends on the method and setting. Binding seen in cells or lysates may run through a third protein. Some binding calls cover weakened binding; strength is not graded here.

For assay [1], the target named is human TUBB4B p.P259L, C-terminal ALFA tag (human) (UniProt P68371). Put plainly: co-IP.
Assay [2] deals with human TUBB4B p.P259S, C-terminal ALFA tag (human) (UniProt P68371). The assay is described as follows: co-IP.

Turning to “TBCD (tubulin folding co-factor D), endogenous in IMCD3 cells (from UniProt Q8BYA0 1-1196)”, the binding result in assay [1] and in assay [2] was “binds” throughout.
